Results are given in words; binding and its absence hold for the method and conditions named. Some results given as binding are weak or reduced against the parent protein; the word gives no strength.
Assays:
[1] = target: amyloid plaques in the brain (temporal cortex) of a human with Alzheimer's disease (human) (UniProt P05067); test: immunohistochemistry on brain sections (figure legend)
[2] = target: amyloid plaques in the brain (temporal cortex) of a human with Alzheimer's disease (human) (UniProt P05067); test: immunohistochemistry on brain sections, MDT-2007 at 1:10K

Chains of the proteins cited; added tags and fusions are not shown. Residues count along the entry.
UniProt P05067, residues 672-713: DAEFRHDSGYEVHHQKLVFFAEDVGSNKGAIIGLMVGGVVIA

binding [1]: binds
binding [2]: binds
B1: MDT-2007 (composite human antibody sequence variant VH4/VK2) (antibody, V domains shown)
VH: QVQLVQSGAEVKKPGASVKVSCTASGFNIKDTYIHWVRQARGQRLEWIGRFDPVNVNTRYDSRFRGRVTITSDASTNTAYMELSSLRSEDTAVYYCSRSYYNGRRRFTYWGQGTLVTVSS
VL: DIVMTQSPSSLTASVGDRVTITCKASQSLLSSGNQKNYLTWYQQKPGQPPKLLIYWASIRESGVPDRFTGSGSGTFFTLTISSLQAEDVAVYYCQNDYNYPFTFGQGTKLEIK
